Measured values from patent US20100297012A1.
Changes are numbered by the printed parent chain. These are yes or no findings as the source states them, for the method shown. Some binding calls cover weakened binding; strength is not graded here.

Sequences of proteins named here, by UniProt entry; tags and fusion partners are left off. Residues count along the entry.
UniProt P05067, residues 672-713: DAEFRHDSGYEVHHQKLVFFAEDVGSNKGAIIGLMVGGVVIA

What was measured:
[1] = target: Amyloid Beta (antigen of the Amyloid Beta ELISA) (UniProt P05067); assay: ELISA for binding to Amyloid Beta, conditioned medium from transient transfection
[2] = target: Amyloid Beta (antigen of the Amyloid Beta ELISA) (UniProt P05067); assay: Amyloid Beta ELISA, purified antibody from NS0 cells
[3] = target: amyloid plaques in human brain sections (human) (UniProt P05067); assay: immunohistochemistry, paraffin sections of human brain pretreated with formic acid
[4] = target: Amyloid Beta (antigen of the Amyloid Beta ELISA) (UniProt P05067); assay: Amyloid Beta ELISA, purified antibody, A405 against ng antibody per well
[5] = target: Amyloid Beta (antigen of the Amyloid Beta ELISA) (UniProt P05067); assay: Amyloid Beta ELISA, purified antibodies, A405 against ng antibody per well
[6] = target: amyloid plaques in human brain sections (human) (UniProt P05067); assay: immunohistochemistry on human brain sections
[7] = target: Amyloid Beta (antigen of the Amyloid Beta ELISA) (UniProt P05067); assay: Amyloid Beta ELISA, conditioned medium of transiently transfected HEK293 cells, A405 against ng antibody per well
[8] = target: Amyloid Beta (antigen of the Amyloid Beta ELISA) (UniProt P05067); assay: Amyloid Beta ELISA, conditioned medium from transient transfection
[9] = target: Amyloid Beta (antigen of the Amyloid Beta ELISA) (UniProt P05067); assay: Amyloid Beta ELISA, purified antibodies from NS0 cells
[10] = target: T1, peptide 15 (aa 15-23 of Aβ1-42); assay: ELISA, biotinylated peptides on streptavidin plates, hC2 at 200 ng/ml
T1 sequence (peptide, biotinylated (site not stated)): QKLVFFAED

[11] = target: T2, peptide 16 (aa 16-24 of Aβ1-42); assay: as above
T2 sequence (peptide, biotinylated (site not stated)): KLVFFAEDV

[12] = target: T3, peptide 14 (aa 14-22 of Aβ1-42); assay: as above
T3 sequence (peptide, biotinylated (site not stated)): HQKLVFFAE

[13] = target: T4, peptide 12 (aa 12-20 of Aβ1-42); assay: as above
T4 sequence (peptide, biotinylated (site not stated)): VHHQKLVFF

[14] = target: T5, peptide 13 (aa 13-21 of Aβ1-42); assay: as above
T5 sequence (peptide, biotinylated (site not stated)): HHQKLVFFA

[15] = target: T6, alanine-substituted Aβ12-20 peptide A15; assay: ELISA, alanine-substituted Aβ12-20 peptides, hC2 at 200 ng/ml
T6 sequence (peptide, biotinylated (site not stated)): VHHAKLVFF

[16] = target: T7, alanine-substituted Aβ12-20 peptide A18; assay: as above
T7 sequence (peptide, biotinylated (site not stated)): VHHQKLAFF

[17] = target: T8, alanine-substituted Aβ12-20 peptide A14; assay: as above
T8 sequence (peptide, biotinylated (site not stated)): VHAQKLVFF

[18] = target: T5, peptide 13 (aa 13-21 of Aβ1-42); assay: ELISA on biotinylated peptides, O.D.
[19] = target: T9, A13; assay: peptide ELISA: biotinylated peptide on streptavidin plate, antibody 200 ng/ml, AP anti-human IgG, O.D. 405 nm
T9 sequence (peptide, biotinylated): VAHQKLVFF

[20] = target: T10, peptide p13-21 G21; assay: as above
T10 sequence (peptide, biotinylated (site not stated)): HHQKLVFFG

[21] = target: T6, alanine-substituted Aβ12-20 peptide A15; assay: as above
[22] = target: T7, alanine-substituted Aβ12-20 peptide A18; assay: as above
[23] = target: T1, peptide 15 (aa 15-23 of Aβ1-42); assay: as above
[24] = target: T11, A12; assay: as above
T11 sequence (peptide, biotinylated): AHHQKLVFF

[25] = target: T2, peptide 16 (aa 16-24 of Aβ1-42); assay: as above
[26] = target: T3, peptide 14 (aa 14-22 of Aβ1-42); assay: as above
[27] = target: T12, peptide p14-22 A22; assay: as above
T12 sequence (peptide, biotinylated (site not stated)): HQKLVFFAA

[28] = target: T8, alanine-substituted Aβ12-20 peptide A14; assay: as above
[29] = target: T4, peptide 12 (aa 12-20 of Aβ1-42); assay: as above
[30] = target: T5, peptide 13 (aa 13-21 of Aβ1-42); assay: as above
[31] = target: T10, peptide p13-21 G21; assay: ELISA, third peptide library, hC2 at 200 ng/ml
[32] = target: T12, peptide p14-22 A22; assay: ELISA, third peptide library, hC2 at 200 ng/ml

Measured: binding

B1: chimeric antibody C2 ChVH AF/ChVK (antibody, human IgG4 S228P, kappa, V domains shown)
VH: EVQLVESGGGLVQPGGSLKLSCAASGFTFSSYGMSWVRQTPDKRLELVASINSNGGSTYYPDSVKGRFTISRDNAKNTLYLQMSSLKSEDTAMYYCASGDYWGQGSTLTVSS
VL: DVVMTQTPLSLPVSLGDQASISCRSSQSLVYSNGDTYLHWYLQKPGQSPKLLIYKVSNRFSGVPDRFSGSGSGTDFTLKISRVEAEDLGVYFCSQSTHVPWTFGGGTKLEIKR
binds: [1] | [2] | [3] | [4] | [5] | [6] | [7]

B2: VK-R antibody (mC2 VK-R with chimeric C2 VH) (antibody, V domains shown)
VH: B1 VH
VL: DVVMTQTPLSLPVSLGDQASISCRSSQSLVYSNGDTYLHWYLQKPGQSPKLLIYRVSNRFSGVPDRFSGSGSGTDFTLKISRVEAEDLGVYFCSQSTHVPWTFGGGTKLEIK
binds: [8] | [7]

B3: humanized antibody C2HuVH4/HuVK2 (antibody, human IgG4 S228P, kappa, name in Kabat numbering, V domains shown)
VH: EVQLVESGGGLVQPGGSLRLSCAASGFTFSSYGMSWVRQAPGKGLELVASINSNGGSTYYPDSVKGRFTISRDNAKNSLYLQMNSLRAEDTAVYYCASGDYWGQGTTVTVSS
VL: B1 VL with V2I, T7S, S14T, L15P, D17E, Q18P, K50Q, L88V, G105Q, L109V
binds: [9] | [5]

B4: humanized antibody C2 HuVH2/HuVK4 (antibody, human IgG4 S228P, kappa, name in Kabat numbering, V domains shown)
VH: B3 VH with L47W
VL: B1 VL with V2I, T7S, S14T, L15P, D17E, Q18P, L88V, G105Q, L109V
binds: [9] | [5]

B5: VK-S antibody (mC2 VK-S with chimeric C2 VH) (antibody, V domains shown)
VH: B1 VH
VL: B2 VL with R55K, N58S
binds: [8] | [7]

B6: humanized monoclonal antibody hC2 (antibody, human IgG4 S228P, kappa, V domains shown)
VH: B3 VH
VL: DIVMTQSPLSLPVTPGEPASISCRSSQSLVYSNGDTYLHWYLQKPGQSPQLLIYKVSNRFSGVPDRFSGSGSGTDFTLKISRVEAEDVGVYYCSQSTHVPWTFGQGTKVEIKR
not listed: [1] | [2] | [3] | [4] | [5] | [6] | [7] | [8] | [9]
binds: all other assays above

B7: C2 HuVH AF version 2 combined with the chimeric C2 kappa chain (antibody, name in Kabat numbering, V domains shown)
VH: B3 VH with L47W
VL: B2 VL with R55K
binds: [8]

B8: humanized antibody C2 HuVH2/HuVK1 (antibody, human IgG4 S228P, kappa, name in Kabat numbering, V domains shown)
VH: B3 VH with L47W
VL: B6 VL
binds: [9] | [5]
